No constants are given. Whether binding was seen depends on the method and setting. A result given as binding can be weak or reduced; the word gives no strength. For some assays here: Binding seen in cells or lysates may run through a third protein. For some assays here: Where a sequence is shown, tags or fusion partners need not be part of it.

Assay [1] has as its target T1, SlDELLA (pGBKT7-SlDELLA) (tomato (Solanum lycopersicum)) (UniProt Q7Y1B6).
T1 sequence: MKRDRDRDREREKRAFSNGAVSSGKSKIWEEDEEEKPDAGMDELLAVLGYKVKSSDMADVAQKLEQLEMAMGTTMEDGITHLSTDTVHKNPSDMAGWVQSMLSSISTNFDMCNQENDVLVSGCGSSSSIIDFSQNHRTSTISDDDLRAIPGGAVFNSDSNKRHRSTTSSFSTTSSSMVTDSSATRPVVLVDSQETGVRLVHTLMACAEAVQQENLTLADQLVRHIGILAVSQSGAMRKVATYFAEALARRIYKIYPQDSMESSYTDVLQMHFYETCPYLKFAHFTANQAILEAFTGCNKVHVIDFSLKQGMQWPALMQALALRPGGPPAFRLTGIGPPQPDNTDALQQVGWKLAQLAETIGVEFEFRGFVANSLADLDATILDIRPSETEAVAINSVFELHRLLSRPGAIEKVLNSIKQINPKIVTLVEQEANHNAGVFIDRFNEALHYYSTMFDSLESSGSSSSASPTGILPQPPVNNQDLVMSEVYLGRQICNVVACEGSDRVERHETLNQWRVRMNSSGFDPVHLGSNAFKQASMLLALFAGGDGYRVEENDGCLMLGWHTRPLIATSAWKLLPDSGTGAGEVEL
Briefly: two-hybrid; Clontech Matchmaker GAL4 system III, Y2H Gold yeast; SlUPA-like in pGADT7, the others in pGBKT7; growth on SD/-Ade/-His/-Leu/-Trp with X-alpha-Gal, 30 °C, 3 days.

Assay [2] concerns the target T2, SlDELLA fused with C-GFP (pFGC-cGFP) (tomato (Solanum lycopersicum)) (UniProt Q7Y1B6).
T2 sequence: T1 sequence
Briefly: split reporter; BiFC with split GFP (pFGC-nGFP and pFGC-cGFP), transient expression in Nicotiana benthamiana epidermal cells, confocal microscopy; HY5-RFP as nuclear marker.

Consider “SlUPA-like (pGADT7-SlUPA-like) (tomato (Solanum lycopersicum))”, for which the binding entry in assay [1] is “binds”. In the case of “SlUPA-like-N (SlUPA-like fused with N-GFP, pFGC-nGFP) (tomato (Solanum lycopersicum))”, the binding entry in assay [2] was “binds”.

The record behind these values is paper PMC11677128.
